The results in this text go back to PubChem BioAssay AID2685 (National Center for Advancing Translational Sciences (NCATS), 2010).

This assay can be described thus: qHTS Assay for Lipid Storage Modulators in Drosophila S3 Cells.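 On cell number change: cells counted by Cell Tracker Red CMTPX staining in the red channel.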 The settings on record: BODIPY lipid droplet fluorescence, 18-24 h; for cell number change: measured here: cell count max response, cells fed with added oleic acid. Put shortly: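 Drosophila S3 cells got compounds at several concentrations plus oleic acid (400 uM solution). Laser-scanning cytometry with 488 nm excitation read lipid droplets at 500-530 nm and cells at 575-640 nm. Percent activity was relative to 20 uM Triacsin C.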
A general note: Quantitative high-throughput screening tests each substance at several concentrations.

Setting [1] is: measured here: lipid fluorescence (Fed channel) AC50, cells fed with added oleic acid.
Where [2] appears, read: measured here: cell number channel AC50, cells fed with added oleic acid.

Structures are written as SMILES. Some of the results follow. These are further read-outs of the screen, such as a control signal, another cell line or another target. No call is given for them. The list favours compounds with an active or inconclusive main result. The note in brackets gives the kind of curve behind each potency; many fits are weak.

The term AC50 denotes the concentration at which the activity in the assay is half-maximal. A low value points to activity at low concentration.

In the case of `CCOC(=O)CSc1nc2c(c(=O)[nH]c(=O)n2C)n1Cc1ccccc1`, the cell number change is 9.89%. For the same compound, the AC50 under setting [1] was 0.291 µM [falling, partial curve, poor fit].

`CCOc1ccc(N2Cc3ccccc3C2)cc1`: the cell number change was -11.9%. For the same compound, the AC50 under setting [1] was 6.51 µM [rising, single point].

For the compound `COc1ccccc1C(=O)N1CCN=C1SCc1cccnc1`, the cell number change turned out to be 49.9%. Besides, under setting [2], the AC50 was 1.46 µM [rising, full curve].

As to `Cc1cc(Nc2ccc(Cl)cc2)nc(NCc2ccccc2)n1`, the cell number change is -89.7%. Besides, the AC50 under setting [2] is 29.1 µM [falling, single point]. In addition, under setting [1], the AC50 was 29.1 µM [falling, partial curve, poor fit].

For the compound `CCN(c1ccc(OC)cc1)S(=O)(=O)c1nnc(NC(=O)COc2ccccc2)s1`, the cell number change was -3.63%. Further, the AC50 under setting [1] was 4.11 µM [falling, single point].

For `O=C(CN1C(=O)C2CC=CCC2C1=O)Nc1ccc(-c2nnc3n2CCCCC3)cc1` (stereo not given), the cell number change was -9.58%.

As for `COC(=O)Cn1cnc2c(C#N)c3n(c2c1=O)CCCCC3`, the cell number change stood at 99.4%. The AC50 under setting [2] is 16.4 µM [rising, partial curve].

Regarding `CC1CCCCN1C(=O)c1ccc(C(=O)N2CCCCC2C)cc1` (stereo not given), the cell number change is 1.56%.

`O=C(c1cccn(Cc2ccc(C(F)(F)F)cc2)c1=O)N1CCOCC1`: under setting [2], the AC50 was 0.82 µM [falling, full curve, poor fit].

On to `Cc1ccc(N(C(=O)c2csnn2)C(C(=O)NCc2ccccc2)c2cccnc2)cc1` (stereo not given), for which the cell number change is 17.9%. Moreover, the AC50 under setting [2] is 0.092 µM [rising, full curve, poor fit].

`COCCn1c(C)cc(C(=O)COC(=O)c2cncc(Br)c2)c1C`: the cell number change was determined as 29%.

Consider `CCOC(=O)c1sc(NC(=S)NC(=O)c2ccccc2)nc1C`, for which the cell number change was -2.4%. Further, the AC50 under setting [1] is 0.731 µM [rising, full curve].

Take `COc1ccc(/C=C/S(=O)(=O)NCc2ccccc2)cc1OC`: the cell number change is -2.35%.

For `Cc1ccc(CO/N=C\Cc2snc(Sc3ncc(C(F)(F)F)cc3Cl)c2C#N)cc1`, the AC50 under setting [1] is 16.4 µM [falling, partial curve].

Turning to `CCC(C)(C)n1nnnc1C(c1ccccn1)N1CCOCC1` (stereo not given), the cell number change was -53.1%. Moreover, the concentration at half-maximal activity (AC50) under setting [2] was 16.4 µM [falling, single point]. Besides, the AC50 under setting [1] was 5.17 µM [falling, full curve].

Regarding `CCCCNC(=O)CCN1N=C(c2ccccc2)CCC1=O`, the cell number change is -4.57%. The AC50 under setting [1] is 0.651 µM [rising, single point].

Consider `COc1ccc(NC(=O)CSc2nc(N)c3cc4c(nc3n2)CCCC4)cc1`, for which the cell number change was found to be 14.2%. In addition, the AC50 under setting [2] was 0.13 µM [falling, full curve, poor fit].

Turning to `CCCC(=O)NC1C2CC3CC(C2)CC1C3` (stereo not given), the cell number change was -2.84%. For the same compound, under setting [1], the concentration at half-maximal activity (AC50) is 0.0517 µM [falling, full curve, poor fit].

As for `Cc1cc(NC(=O)CSc2nnc(-c3ccc(Br)o3)n2Cc2ccccc2)no1`, the cell number change is -18.6%. In addition, under setting [1], the AC50 was 0.058 µM [rising, full curve, poor fit].

Consider `CCOc1ccc(NC(=O)CN(C)C(=O)c2ccncc2)cc1OCC`, for which the cell number change is -5.41%. Further, the half-maximal activity concentration (AC50) under setting [1] was 6.51 µM [falling, single point].

For the compound `Cc1cccc(-c2nc3ccccc3c3nncn23)c1`, the cell number change amounted to 4.58%. Besides, under setting [2], the AC50 is 0.0731 µM [rising, full curve, poor fit].

For `COC(=O)CC1=NN(c2ccccc2)C(=O)C1`, the cell number change was -40.9%. In addition, under setting [2], the AC50 is 5.17 µM [falling, partial curve]. The AC50 under setting [1] was 3.66 µM [falling, full curve].

Turning to `Cc1ccccc1NC(=O)COC(=O)CC1CCCC1`, the cell number change is 24.8%. The half-maximal activity concentration (AC50) under setting [2] is 4.61 µM [falling, single point].

With `CCC(C)CCN1C(N(C)C)=NC[C@@H]1C` (stereo not given in full), the cell number change was determined as 14.6%. In addition, under setting [1], the AC50 is 6.51 µM [rising, partial curve, poor fit].

In the case of `CCc1ccc(C(c2c(C)nn(-c3ccccc3)c2N)c2c(C)nn(-c3ccccc3)c2N)cc1`, the cell number change stood at 26.1%.

On to `CCOc1ccc(NC(=S)Nc2cc(C)[nH]n2)cc1`, for which the cell number change was found to be 30.5%. Also, under setting [2], the AC50 was 0.291 µM [rising, full curve]. Besides, under setting [1], the AC50 is 4.11 µM [falling, single point].

As to `O=C(c1cccc2ccccc12)C1CCCN(C(=O)c2ccc(N3CCOCC3)cc2)C1` (stereo not given), the cell number change worked out at 13.4%. Besides, under setting [1], the AC50 is 0.651 µM [rising, single point].

`COc1ccccc1CN1C(=O)C2CC=CCC2C1=O` (stereo not given): the cell number change is -19.8%.

Take `Cc1ccc(/C=C(\C#N)c2nn(-c3ccccc3)c(N)c2C#N)cc1`: the cell number change turned out to be 0.53%. For the same compound, under setting [1], the AC50 is 0.00517 µM [rising, full curve, poor fit].

Take `COc1ccc(C(=O)NNC(=O)C(=O)Nc2cccc3ccccc23)cc1`: the cell number change was determined as 76.1%. For the same compound, the AC50 under setting [2] is 25.9 µM [rising, partial curve].

With `CCc1nnc(NC(=O)CSc2nnc(-c3ccoc3C)n2CC(C)C)s1`, the cell number change was found to be 45%. Under setting [2], the AC50 is 29.1 µM [rising, single point]. Besides, under setting [1], the AC50 is 29.1 µM [rising, single point].

As for `O=C(NC1CCCCC1)c1cc(-c2ccccn2)nc2ccccc12`, the cell number change was 2.81%.

As for `CN1N=C(C(=O)NC2CCCc3c2cnn3-c2ccc(F)cc2F)CCC1=O` (stereo not given), the cell number change is -55.4%. Besides, under setting [2], the AC50 is 11.6 µM [falling, partial curve, poor fit].

Regarding `CNC(=O)N1CCC(C(=O)c2c(C)c(C)c(C)c(C)c2C)CC1`, the cell number change is -0.709%.

Regarding `Cc1cccc(CSCC(=O)NCc2ccc(S(N)(=O)=O)cc2)c1`, the AC50 under setting [1] is 18.4 µM [rising, single point].

For `Cc1cccc(C)c1N(CC(=O)N1CCN(C)CC1)S(C)(=O)=O`, the cell number change was -29.6%. For the same compound, under setting [1], the AC50 is 4.11 µM [falling, full curve].

Turning to `O=C(c1ccc2c(c1)OCO2)N1CCN(c2ncccn2)CC1`, the cell number change was 11.8%. The AC50 under setting [1] is 5.8 µM [rising, single point].

For the compound `O=C(Nc1ccccc1F)c1cc(S(=O)(=O)N2CCCCC2)cs1`, the cell number change was 5.69%. The AC50 under setting [1] was 0.184 µM [falling, full curve, poor fit].

Consider `Cn1ncc2c(Nc3cc(Cl)cc(Cl)c3)ncnc21`, for which the cell number change came out at 0.298%.

Turning to `CCCOc1ccc(OCCOCCN2CCc3ccccc3C2)cc1`, the cell number change was -18.5%.

Regarding `C/C(=N\NC(=O)c1cccnc1)c1ccc(-c2ccccc2)cc1`, the cell number change was -37.3%. The AC50 under setting [2] was 32.6 µM [falling, single point]. Further, the AC50 under setting [1] is 29.1 µM [falling, single point].

On to `COc1ccc(NC(=O)CSc2nnc(-c3ccccc3)n2Cc2ccco2)c(OC)c1`, for which the cell number change is -17.7%. Moreover, the half-maximal activity concentration (AC50) under setting [1] is 0.411 µM [rising, full curve, poor fit].

Turning to `Fc1ccc(NC(=S)N2CCOCC2)cc1Cl`, the cell number change was -0.228%. In addition, the AC50 under setting [2] was 0.112 µM [falling, full curve, poor fit].

For `CN(C)S(=O)(=O)c1ccc(N2CCCC2)c(C(=O)NC2CCCCC2)c1`, the cell number change was -25.9%. Besides, the half-maximal activity concentration (AC50) under setting [2] is 0.58 µM [falling, full curve].

`CNC(=S)N/N=C(\C)c1ccc(Cl)c(Cl)c1`: under setting [2], the AC50 was 1.3 µM [rising, partial curve].

As for `C=CCn1c(SCC(=O)Nc2cccc(S(N)(=O)=O)c2)nnc1C1CCCCC1`, the cell number change was 8.57%. In addition, under setting [1], the AC50 is 0.517 µM [rising, single point].

On to `Cc1ccccc1-n1nc2c(c1NC(=O)C1CCCC1)CS(=O)(=O)C2`, for which, under setting [1], the AC50 was 6.51 µM [falling, single point].

As for `CC(=O)n1cc(N(C(=O)CCl)c2ccccc2)c2ccccc21`, the cell number change is -62.2%. Besides, the concentration at half-maximal activity (AC50) under setting [2] was 20.6 µM [falling, partial curve, poor fit].

Consider `Cc1cccc2[nH]c3c(N4CCN(C(=O)c5ccco5)CC4)ncnc3c12`, for which the cell number change was -25%. Besides, under setting [1], the AC50 was 0.259 µM [falling, full curve].

`COc1ccccc1N1CCN(C(=O)c2ccc(Cl)c(S(=O)(=O)NCc3ccco3)c2)CC1`: the cell number change was 21.8%. Besides, the AC50 under setting [1] is 3.66 µM [rising, partial curve].

As to `O=C(c1cccn2c(=O)c3ccccc3nc12)N1CCN(c2ccccn2)CC1`, the AC50 under setting [1] is 6.51 µM [falling, single point].

Turning to `Cc1ccc(CNC(=O)CC(C)S(=O)(=O)c2ccc3c(c2)NC(=O)CS3)o1` (stereo not given), the cell number change was 23.7%. The AC50 under setting [1] was 29.1 µM [rising, single point].

With `COc1ccc(N(CC(=O)NCc2ccco2)C(=O)CCC(=O)Nc2nccs2)cc1`, the cell number change was 10.3%.

On to `Cc1ccc(NC(=O)Cn2c(/C=C/c3ccccc3)nc3ccccc32)cc1C`, for which the AC50 under setting [1] was 0.58 µM [rising, single point].

For `Cc1ccc(SCCC(=O)NCCSCc2ccccc2C)cc1`, the cell number change came to 3.66%. Besides, the AC50 under setting [1] is 29.1 µM [rising, single point].

For the compound `O=C(Nc1ccccc1)N1N=CCC1c1ccccc1` (stereo not given), the AC50 reads like this: under setting [2], 1.26 µM [falling, partial curve]; under setting [1], 1.12 µM [falling, full curve].

As to `O=C(Nc1ccccc1)c1ccc(N2CCN(c3ccccn3)CC2)c(S(=O)(=O)N2CCOCC2)c1`, the AC50 is 2.91 µM [rising, partial curve] under setting [2] and 4.61 µM [rising, partial curve] under setting [1].

With `Cc1ccc(-c2nn3c(C)nnc3s2)cc1NC(=O)c1ccc(-c2cccc(Cl)c2)o1`, the cell number change was found to be 27.6%. Moreover, the AC50 under setting [1] is 1.46 µM [rising, full curve, poor fit].

`COc1cccc(/C(O)=C/c2nc3ccc(C(=O)NCCc4ccc(Cl)cc4)cc3[nH]c2=O)c1`: the cell number change stood at 26.1%. In addition, the AC50 under setting [1] is 29.1 µM [rising, single point].

As for `O=c1cc(/N=C/c2coc3c(ccc4ccccc43)c2=O)[nH]c(=S)[nH]1`, the cell number change is -16.7%. The concentration at half-maximal activity (AC50) under setting [2] was 0.00461 µM [falling, full curve, poor fit].

As for `COc1cc(NC(=S)N2CCCC(CO)C2)c(OC)cc1Cl` (stereo not given), the cell number change was -13.2%. For the same compound, under setting [1], the AC50 is 0.731 µM [falling, full curve].

As for `CCC(C)c1ccccc1NC(=O)COC(=O)c1ccc(C)c(NC(=O)c2ccco2)c1` (stereo not given), the cell number change came to 52.5%. Further, the AC50 under setting [2] is 0.0206 µM [rising, full curve, poor fit]. Further, the AC50 under setting [1] was 0.0231 µM [rising, full curve, poor fit].

For `O=C(/C=C\c1cccs1)c1c(O)ccc2ccc(=O)oc12`, the cell number change is -24.8%. Under setting [1], the AC50 is 29.1 µM [falling, single point].
